Measured values reported in article PMC6264874, “A single class of ARF GTPase activated by several pathway-specific ARF-GEFs regulates essential membrane traffic in Arabidopsis” (PLoS Genetics, 2018).
Results are given in words; binding and its absence hold for the method and conditions named. In cells and extracts the contact can be indirect. These calls come from enrichment with a bait or labelling near it, and not all partners need be listed. For some of these results: A no says only that the protein was not detected with the bait.

Sequences of proteins named here, by UniProt entry; tags and fusion partners are left off.
UniProt Q9LS94: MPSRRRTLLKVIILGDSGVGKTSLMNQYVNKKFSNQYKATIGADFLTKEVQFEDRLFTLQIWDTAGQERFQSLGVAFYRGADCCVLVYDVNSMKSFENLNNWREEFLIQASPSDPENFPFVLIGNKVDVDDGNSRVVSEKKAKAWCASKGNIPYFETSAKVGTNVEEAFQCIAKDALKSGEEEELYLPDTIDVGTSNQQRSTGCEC
UniProt P36397: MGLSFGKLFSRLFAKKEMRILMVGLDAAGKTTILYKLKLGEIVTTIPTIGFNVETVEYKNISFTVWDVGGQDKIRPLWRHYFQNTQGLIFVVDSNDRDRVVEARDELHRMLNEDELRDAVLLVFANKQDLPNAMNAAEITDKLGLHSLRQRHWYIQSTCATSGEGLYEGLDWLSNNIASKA
UniProt F4JSZ5: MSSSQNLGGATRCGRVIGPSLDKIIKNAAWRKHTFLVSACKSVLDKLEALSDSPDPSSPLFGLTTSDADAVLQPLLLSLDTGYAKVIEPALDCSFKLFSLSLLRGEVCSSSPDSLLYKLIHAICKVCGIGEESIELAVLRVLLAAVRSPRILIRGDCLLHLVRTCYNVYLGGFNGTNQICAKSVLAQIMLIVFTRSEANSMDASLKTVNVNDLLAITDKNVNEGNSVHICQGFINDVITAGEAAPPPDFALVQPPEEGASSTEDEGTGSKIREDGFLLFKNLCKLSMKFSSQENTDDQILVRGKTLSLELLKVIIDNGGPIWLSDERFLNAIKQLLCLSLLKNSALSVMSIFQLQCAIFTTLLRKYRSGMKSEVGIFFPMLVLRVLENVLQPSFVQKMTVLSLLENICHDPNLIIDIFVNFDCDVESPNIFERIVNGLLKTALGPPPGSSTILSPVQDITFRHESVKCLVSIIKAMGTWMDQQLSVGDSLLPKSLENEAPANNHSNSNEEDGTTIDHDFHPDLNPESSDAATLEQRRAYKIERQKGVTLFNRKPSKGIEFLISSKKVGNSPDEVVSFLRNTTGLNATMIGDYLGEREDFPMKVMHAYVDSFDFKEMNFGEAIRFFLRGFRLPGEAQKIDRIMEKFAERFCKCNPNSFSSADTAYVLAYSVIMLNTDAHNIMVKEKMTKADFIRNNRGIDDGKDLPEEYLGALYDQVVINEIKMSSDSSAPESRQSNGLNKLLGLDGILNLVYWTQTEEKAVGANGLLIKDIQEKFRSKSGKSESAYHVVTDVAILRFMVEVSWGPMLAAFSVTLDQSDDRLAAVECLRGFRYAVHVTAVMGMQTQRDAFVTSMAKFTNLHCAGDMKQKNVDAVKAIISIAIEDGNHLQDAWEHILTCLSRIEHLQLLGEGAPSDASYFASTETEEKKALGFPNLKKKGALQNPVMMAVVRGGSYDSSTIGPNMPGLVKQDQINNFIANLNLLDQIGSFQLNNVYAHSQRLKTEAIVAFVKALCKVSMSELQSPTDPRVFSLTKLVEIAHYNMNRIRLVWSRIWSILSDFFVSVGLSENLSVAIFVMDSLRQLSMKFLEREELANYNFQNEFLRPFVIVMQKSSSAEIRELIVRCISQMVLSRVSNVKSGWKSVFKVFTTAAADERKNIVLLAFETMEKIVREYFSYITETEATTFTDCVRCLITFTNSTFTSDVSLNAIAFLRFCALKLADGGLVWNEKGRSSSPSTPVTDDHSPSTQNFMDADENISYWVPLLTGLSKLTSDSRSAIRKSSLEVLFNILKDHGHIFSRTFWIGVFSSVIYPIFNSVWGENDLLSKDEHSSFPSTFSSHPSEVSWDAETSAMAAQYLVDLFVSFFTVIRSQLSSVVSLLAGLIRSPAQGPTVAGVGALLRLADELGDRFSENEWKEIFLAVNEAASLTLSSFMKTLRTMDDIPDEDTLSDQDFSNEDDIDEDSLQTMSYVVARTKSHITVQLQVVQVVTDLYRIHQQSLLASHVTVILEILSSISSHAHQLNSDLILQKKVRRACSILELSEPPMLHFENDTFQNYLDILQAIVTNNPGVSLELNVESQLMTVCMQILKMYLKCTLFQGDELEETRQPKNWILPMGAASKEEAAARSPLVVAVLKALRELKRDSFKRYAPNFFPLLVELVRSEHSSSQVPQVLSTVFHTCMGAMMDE
UniProt Q9LZX8: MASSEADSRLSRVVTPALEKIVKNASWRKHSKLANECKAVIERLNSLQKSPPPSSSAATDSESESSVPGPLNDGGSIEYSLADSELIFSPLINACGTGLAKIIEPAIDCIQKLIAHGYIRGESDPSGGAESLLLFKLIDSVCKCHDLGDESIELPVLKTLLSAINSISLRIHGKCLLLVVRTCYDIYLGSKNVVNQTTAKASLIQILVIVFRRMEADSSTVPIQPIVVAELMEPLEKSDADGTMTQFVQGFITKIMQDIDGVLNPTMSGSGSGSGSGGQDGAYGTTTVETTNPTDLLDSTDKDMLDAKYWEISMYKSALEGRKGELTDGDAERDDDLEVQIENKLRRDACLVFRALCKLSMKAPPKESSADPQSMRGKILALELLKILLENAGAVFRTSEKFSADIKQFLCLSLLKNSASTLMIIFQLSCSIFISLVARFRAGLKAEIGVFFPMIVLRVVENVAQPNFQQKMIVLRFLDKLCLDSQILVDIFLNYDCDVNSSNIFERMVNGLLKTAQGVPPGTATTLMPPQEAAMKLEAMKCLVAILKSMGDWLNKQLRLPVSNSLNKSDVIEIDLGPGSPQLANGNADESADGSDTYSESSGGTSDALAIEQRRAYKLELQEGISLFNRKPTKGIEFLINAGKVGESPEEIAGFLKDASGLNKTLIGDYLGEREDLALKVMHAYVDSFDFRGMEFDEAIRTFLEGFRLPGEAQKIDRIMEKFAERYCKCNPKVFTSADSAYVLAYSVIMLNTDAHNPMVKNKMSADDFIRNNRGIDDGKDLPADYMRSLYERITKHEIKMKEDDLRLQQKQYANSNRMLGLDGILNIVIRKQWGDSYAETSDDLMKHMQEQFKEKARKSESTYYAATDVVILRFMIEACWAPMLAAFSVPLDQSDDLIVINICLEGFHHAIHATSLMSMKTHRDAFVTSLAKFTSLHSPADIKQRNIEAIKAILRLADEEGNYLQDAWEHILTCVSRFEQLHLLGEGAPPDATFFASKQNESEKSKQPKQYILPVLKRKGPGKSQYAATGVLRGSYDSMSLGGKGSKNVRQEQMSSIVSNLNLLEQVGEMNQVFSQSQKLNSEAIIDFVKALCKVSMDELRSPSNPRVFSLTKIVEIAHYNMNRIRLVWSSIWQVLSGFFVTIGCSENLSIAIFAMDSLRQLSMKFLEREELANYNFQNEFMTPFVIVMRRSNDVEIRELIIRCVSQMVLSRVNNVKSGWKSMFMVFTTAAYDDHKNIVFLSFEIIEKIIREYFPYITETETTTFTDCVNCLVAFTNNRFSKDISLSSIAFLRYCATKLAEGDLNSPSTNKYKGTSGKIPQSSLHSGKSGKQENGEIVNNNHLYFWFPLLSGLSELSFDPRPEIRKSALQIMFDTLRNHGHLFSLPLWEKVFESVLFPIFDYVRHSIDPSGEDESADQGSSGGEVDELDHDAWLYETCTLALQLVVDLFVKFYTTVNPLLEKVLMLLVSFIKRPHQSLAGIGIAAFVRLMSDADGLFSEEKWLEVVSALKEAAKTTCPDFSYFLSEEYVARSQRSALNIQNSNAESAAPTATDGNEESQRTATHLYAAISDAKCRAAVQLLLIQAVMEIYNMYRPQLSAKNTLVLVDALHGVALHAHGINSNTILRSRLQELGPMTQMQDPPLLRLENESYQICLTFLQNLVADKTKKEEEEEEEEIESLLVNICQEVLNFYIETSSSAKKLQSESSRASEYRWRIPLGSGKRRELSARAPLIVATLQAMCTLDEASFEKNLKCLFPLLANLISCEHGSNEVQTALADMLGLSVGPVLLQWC
UniProt Q9LPC5: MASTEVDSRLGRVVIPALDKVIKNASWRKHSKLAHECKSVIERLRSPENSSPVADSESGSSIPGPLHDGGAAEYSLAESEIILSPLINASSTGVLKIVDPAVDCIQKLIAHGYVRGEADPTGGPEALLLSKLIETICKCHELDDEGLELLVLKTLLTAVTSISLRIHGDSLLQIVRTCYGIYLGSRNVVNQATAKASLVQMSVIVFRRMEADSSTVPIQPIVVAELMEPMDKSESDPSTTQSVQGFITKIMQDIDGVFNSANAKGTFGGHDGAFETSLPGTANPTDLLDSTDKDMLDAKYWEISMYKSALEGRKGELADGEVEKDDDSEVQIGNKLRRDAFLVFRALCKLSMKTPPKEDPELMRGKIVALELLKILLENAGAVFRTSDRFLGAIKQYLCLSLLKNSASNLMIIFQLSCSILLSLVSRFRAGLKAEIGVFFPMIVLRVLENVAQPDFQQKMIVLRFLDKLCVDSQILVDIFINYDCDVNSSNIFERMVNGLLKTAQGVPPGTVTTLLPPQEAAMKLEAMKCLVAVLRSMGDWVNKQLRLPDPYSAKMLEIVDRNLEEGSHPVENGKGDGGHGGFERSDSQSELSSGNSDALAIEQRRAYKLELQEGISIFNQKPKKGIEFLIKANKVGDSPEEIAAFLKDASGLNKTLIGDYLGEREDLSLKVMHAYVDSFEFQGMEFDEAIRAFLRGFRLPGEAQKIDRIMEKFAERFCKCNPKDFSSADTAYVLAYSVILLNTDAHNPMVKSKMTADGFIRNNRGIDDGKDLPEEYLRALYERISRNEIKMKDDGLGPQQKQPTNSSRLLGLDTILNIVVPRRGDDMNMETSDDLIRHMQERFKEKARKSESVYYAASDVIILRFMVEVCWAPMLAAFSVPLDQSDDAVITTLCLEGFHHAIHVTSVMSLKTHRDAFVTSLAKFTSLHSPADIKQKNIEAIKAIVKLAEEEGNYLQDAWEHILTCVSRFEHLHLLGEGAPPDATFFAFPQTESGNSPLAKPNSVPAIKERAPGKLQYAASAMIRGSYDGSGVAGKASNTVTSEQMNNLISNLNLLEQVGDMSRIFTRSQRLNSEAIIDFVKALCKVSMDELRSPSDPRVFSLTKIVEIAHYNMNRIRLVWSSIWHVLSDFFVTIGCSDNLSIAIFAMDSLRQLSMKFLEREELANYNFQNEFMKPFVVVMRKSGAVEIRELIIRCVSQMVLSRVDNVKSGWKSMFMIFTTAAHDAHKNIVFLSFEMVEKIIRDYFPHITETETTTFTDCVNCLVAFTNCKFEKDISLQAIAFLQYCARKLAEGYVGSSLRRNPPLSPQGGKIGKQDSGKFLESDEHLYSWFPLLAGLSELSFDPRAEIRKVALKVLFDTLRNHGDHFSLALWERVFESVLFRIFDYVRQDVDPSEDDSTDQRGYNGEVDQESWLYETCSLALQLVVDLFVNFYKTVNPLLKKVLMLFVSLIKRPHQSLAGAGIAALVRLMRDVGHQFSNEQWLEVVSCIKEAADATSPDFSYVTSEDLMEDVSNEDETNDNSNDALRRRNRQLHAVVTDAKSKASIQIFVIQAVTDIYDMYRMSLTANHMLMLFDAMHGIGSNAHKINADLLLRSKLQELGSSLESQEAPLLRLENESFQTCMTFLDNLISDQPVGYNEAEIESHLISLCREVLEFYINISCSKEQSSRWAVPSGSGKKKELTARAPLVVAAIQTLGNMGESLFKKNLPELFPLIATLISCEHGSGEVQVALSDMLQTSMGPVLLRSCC

Experiments:
Experiment in all cases: affinity purification with mass spectrometry; YFP-tagged GTPases (ARF and RABG3f) immunoprecipitated with GFP-Trap beads from Arabidopsis seedling extracts in the presence of brefeldin A (50 uM); eluted proteins analysed by LC-MS/MS
[1] = molecular target: YFP-RABG3f (Arabidopsis thaliana) (UniProt Q9LS94)
[2] = molecular target: ARF1-YFP (ARFA1c-YFP) (Arabidopsis thaliana) (UniProt P36397)
[3] = molecular target: ARFA-YFP (ARFB1b-YFP) (Arabidopsis thaliana)

| Molecule | binding [1] | binding [2] | binding [3] |
| --- | --- | --- | --- |
| endogenous BIG1 (from UniProt F4JSZ5 1-1687) | no binding | binds | – |
| endogenous BIG2 (from UniProt Q9LZX8 1-1793) | no binding | binds | – |
| endogenous BIG3 (from UniProt Q9LPC5 1-1750) | no binding | binds | – |
| endogenous BIG4 (from UniProt F4JN05 1-1706) | no binding | binds | – |
| retromer subunit VPS35 isoform A (protein, UniProt Q7X659 1-787) MIADGSEDEEKWLAAGAAAFKQNAFYMQRAIDSNNLKDALKYSAQMLSELRTSKLSPHKYYDLYMRAFDELRKLEIFFMEETRRGCSVIELYELVQHAGNILPRLYLLCTAGSVYIKTKEAPAKEILKDLVEMCRGIQHPLRGLFLRSYLAQISRDKLPDIGSEYEGDADTVIDAVEFVLLNFTEMNKLWVRMQHQGPAREKERREKERGELRDLVGKNLHVLSQLEGVDLDMYRDTVLPRVLEQIVNCRDEIAQYYLIDCIIQVFPDEYHLQTLDVLLGACPQLQASVDIMTVLSRLMERLSNYAALNAEVLPYFLQVEAFSKLNNAIGKVIEAQEDMPILSAVTLYSSLLKFTLHVHPDRLDYADQVLGSCVKQLSGKGKIDDTRATKELVSLLSAPLEKYNDVVTALKLTNYPLVVEYLDTETKRIMATVIVRSIMKNNTLITTAEKVEALFELIKGIINDLDEPQGLEVDEDDFQEEQNSVALLIHMLYNDDPEEMFKIVNVLKKHFLTGGPKRLKFTIPPLVVSTLKLIRRLPVEGDNPFGKEASVTATKIFQFLNQIIEALPNVPSPDLAFRLYLQCAEAADKCDEEPIAYEFFTQAYILYEEEISDSKAQVTALQLIIGTLQRMQVFGVENRDTLTHKATGYAAKLLKKPDQCRAVYACSHLFWLEDRETIQDGERVLLCLKRALKIANSAQQVANTARGSTGSVTLFIEILNKYLYFYEKGVPQITVESVESLIKLIKNEESMPSDPSAESFFATTLEFMEFQKQKEGAIGERYQAIKV | binds | – | – |
| retromer subunit VPS35 isoform B (protein, UniProt F4I0P8 1-790) MRTLAGVEDEDKWLAEGIAGIQHNAFFMHRALDANNLREVLKYSALMLSELRTSKLSPQKYYDLYMRAFDQLRQLEIFFKDESRHGLPVVDLYELVQHAGNILPRMYLLCTVGSVYIKSKQAPSKDVLKDLVEMCRGVQHPIRGLFLRSYLAQVSRDKLPEIGSDYEGDANTVMDAVEFVLQNFTEMNKLWVRIQHQGPGTVREKQEKERNELRDLVGKNLHVLGQIEGVDLEMYKETVLPRVLEQVVNCKDKLAQYYLMECIIQVFPDEYHLQTLETLLAACTQLMPTVDTKIVLTQLMDRLSNYAASSPDVLHEFLQVEAFAKLSNAIGKVIDTQLEMPIVGAMTLFVSLLTFTLRVHPDRLDYVDQVLGACVVKLSSVPKLEDARAMKQVVALLSAPLEKYSDIVTALTLSNYPRVMDHLDDGTNKVMAMLIIQSIMKTDSCISTADKVEVLFELIKGLIKDLDETNAEELDEEDFQEEQNSVARLIHMLDNEEPEEMLKIICVVRRHLMTGGPRRLPFTVPPLVFSAVRLVRQLESQGGDIAGEDSATPRKIFQILNQTIEVLTSVPCPELALRLYLQCAEAASDCDLEPVAYEFFTQAFMLYEEEIADSKAQVTAIHLIVGTLQRINVFGVENRDTLTHKATGYSARLLKKPDQCRAVYACSHLFWVDDPDGIKDGERVLLCLRRALRIANAAQQMASATRGSSGPVTLFVEILNKYIYFFEKGNPHITPSDIQSLIELINNEMQSDNGNTTIHSDPFFTSTLRYIKFIKQKGGLMGEKYDPIKL | binds | – | – |
| endogenous GNL1 (protein, UniProt Q9FLY5 1-1443) MGYQNHPSGSNSFHGEFKRCHSKPSKGAVASMINSEIGAVLAVMRRNVRWGVRYIADDDQLEHSLIHSLKELRKQIFSWQSNWQYVDPRLYIQPFLDVILSDETGAPITGVALSSVYKILTLEVFTLETVNVGEAMHIIVDAVKSCRFEVTDPASEEVVLMKILQVLLACVKSKASNGLSNQDICTIVNTCLRVVHQSSSKSELLQRIARHTMHELIRCIFSQLPFISPLANECELHVDNKVGTVDWDPNSGEKRVENGNIASISDTLGTDKDDPSSEMVIPETDLRNDEKKTEVSDDLNAAANGENAMMAPYGIPCMVEIFHFLCTLLNVGENGEVNSRSNPIAFDEDVPLFALGLINSAIELGGPSFREHPKLLTLIQDDLFCNLMQFGMSMSPLILSTVCSIVLNLYLNLRTELKVQLEAFFSYVLLRIAQSKHGSSYQQQEVAMEALVDLCRQHTFIAEVFANFDCDITCSNVFEDVSNLLSKNAFPVNGPLSAMHILALDGLISMVQGMAERVGEELPASDVPTHEERYEEFWTVRCENYGDPNFWVPFVRKVKHIKKKLMLGADRFNRDPNKGLQYLQGVHLLPEKLDPKSVACFFRYTCGLDKNVMGDFLGNHDQFCIQVLHEFAKTFDFQNMNLATALRLFVGTFKLSGEAQKIHRVLEAFSERYYEQSPHILIDKDAAFVLAYSIILLNTDQHNAQVKTRMTEEDFIRNNRTINGGADLPREYLSEIYHSIRHSEIQMDEDKGTGFQLMTASRWISVIYKSKETSPYIQCDAASHLDRDMFYIVSGPTIAATSVVFEQAEQEDVLRRCIDGLLAIAKLSAYYHLNSVLDDLVVSLCKFTPFFAPLSADEAVLVLGEDARARMATEAVFLIANKYGDYISAGWKNILECVLSLNKLHILPDHIASDAADDPELSTSNLEQEKPSANPVPVVSQSQPSAMPRKSSSFIGRFLLSFDSEETKPLPSEEELAAYKHARGIVKDCHIDSIFSDSKFLQAESLQQLVNSLIRASGKDEASSVFCLELLIAVTLNNRDRILLIWPTVYEHILGIVQLTLTPCTLVEKAVFGVLKICQRLLPYKENLTDELLKSLQLVLKLKAKVADAYCERIAQEVVRLVKANASHVRSRTGWRTIISLLSITARHPEASEAGFEALRFIMSEGAHLLPSNYELCLDAASHFAESRVGEVDRSISAIDLMSNSVFCLARWSQEAKNSIGETDAMMKLSEDIGKMWLKLVKNLKKVCLDQRDEVRNHAISMLQRAIAGADGIMLPQPLWFQCFDSAVFILLDDVLTFSIENSRKTLKKTVEETLVLATKLMSKAFLQSLQDISQQPSFCRLWVGVLNRLETYMSTEFRGKRSEKVNELIPELLKNTLLVMKATGVLLPGDDIGSDSFWQLTWLHVNKISPSLQSEVFPQEELDQFQRRNAKPEDPPVPGNEV | no binding | binds | no binding |
